In PMC10138427:
No constants are given. Whether binding was seen depends on the method and setting. Binding seen in cells or lysates may run through a third protein. Some entries that bind do so weakly or less than the wild type.

Legend:
[1] = target: mouse NRP1 wild type with Flag (NRP1 WT), overexpressed in C3H10T1/2 cells (mouse) (UniProt P97333); test: co-IP; lysates of ov-NRP1 WT (Flag) and ov-cont cells (C3H10T1/2 in control or differentiation medium; HEK 293T) incubated overnight at 4 °C with anti-Flag M2 affinity gel, washed five times, eluted with Flag peptide, blotted with anti-NRP1 and anti-JIP4
[2] = target: mouse NRP1 wild type with Flag (NRP1 WT), overexpressed in HEK 293T cells (mouse) (UniProt P97333); test: as above

B1: C-Jun N-terminal kinase (JNK)-interacting protein 4 (JIP4), endogenous in C3H10T1/2 cells (protein, UniProt Q58A65 1-1321)
chain: MELEDGVVYQEEPGGSGAVMSERVSGLAGSIYREFERLIGRYDEEVVKELMPLVVAVLENLDSVFAQDQEHQVELELLRDDNEQLITQYEREKALRKHAEEKFIEFEDSQEQEKKDLQTRVESLESQTRQLELKAKNYADQISRLEEREAELKKEYNALHQRHTEMIHNYMEHLERTKLHQLSGSDQLEATAHSRIRKERPISLGIFPLPAGDGLLTPDTQKGGETPGSEQWKFQELSQPRSHTSLKVSHSPEPPKAVEQEDELSDISQGGSKATTPASTANSDVSAIPPDTPSKEDNEGFVKGTDTSNKSEISKHIEVQVAQETRNVSTESGENEEKSEVQAIIESTPELDMDKDLSGYKGSSTPTKGIENKAFDRNTESLFEELSSAGSGLIGDVDEGADLLGMGREVENLILENTQLLETKNALNVVKNDLIAKVDELTCEKDVLQGELEAVKQAKLKLEDKNRELEEELRKARAEAEDARQKAKDDDDSDIPTAQRKRFTRVEMARVLMERNQYKERLMELQEAVRWTEMIRASRENPAMQEKKRSSIWQFFSRLFSSSSNATKKPEPPVNLKYNAPTSHVTPSVKKRSSTLSQLPGDKSKAFDFLSEETEASLASRREQKREQYRQVKAHVQKEDGRVQAFGWSLPQKYKQVANGQGETKMKNLPVPVYLRPLDEKDASMKLWCAVGVNLSGGKTRDGGSVVGASVFYKDIAGLDTEGSKQRSASQSSLDKLDQELKEQQKEFKNQEELSSQVWICTSTHSTTKVIIIDAVQPGNILDSFTVCNSHVLCIASVPGARETDYPAGEELSESGQVDKASLCGSMTSNSSAEMDSLLGGITVVGCSTEGLTGAATSPSTNGASPVIEKPPEMETENSEVDENIPTAEEATEATEGNAGSTEDTVDISQPGVYTEHVFTDPLGVQIPEDLSPVFQSSNDSDVYKDQISVLPNEQDLAREEAQKMSSLLPTMWLGAQNGCLYVHSSVAQWRKCLHSIKLKDSILSIVHVKGIVLVALADGTLAIFHRGVDGQWDLSNYHLLDLGRPHHSIRCMTVVHDKVWCGYRNKIYVVQPKAMKIEKSFDAHPRKESQVRQLAWVGDGVWVSIRLDSTLRLYHAHTYQHLQDVDIEPYVSKMLGTGKLGFSFVRITALMVSCNRLWVGTGNGVIISIPLTETNKTSGTPGNRPGSVIRVYGDENSDKVTPGTFIPYCSMAHAQLCFHGHRDAVKFFVAVPGQVISPQSSSGGADLTADKAGSSAQEPSSQTPLKSMLVISGGEGYIDFRMGDEGGESELLGEDLPLEPSVTKAERSHLIVWQVMCGNE
For B1, the binding [1] was “binds”.

B2: C-Jun N-terminal kinase (JNK)-interacting protein 4 (JIP4), endogenous in HEK 293T cells (protein, UniProt O60271 1-1321)
chain: MELEDGVVYQEEPGGSGAVMSERVSGLAGSIYREFERLIGRYDEEVVKELMPLVVAVLENLDSVFAQDQEHQVELELLRDDNEQLITQYEREKALRKHAEEKFIEFEDSQEQEKKDLQTRVESLESQTRQLELKAKNYADQISRLEEREAELKKEYNALHQRHTEMIHNYMEHLERTKLHQLSGSDQLESTAHSRIRKERPISLGIFPLPAGDGLLTPDAQKGGETPGSEQWKFQELSQPRSHTSLKVSNSPEPQKAVEQEDELSDVSQGGSKATTPASTANSDVATIPTDTPLKEENEGFVKVTDAPNKSEISKHIEVQVAQETRNVSTGSAENEEKSEVQAIIESTPELDMDKDLSGYKGSSTPTKGIENKAFDRNTESLFEELSSAGSGLIGDVDEGADLLGMGREVENLILENTQLLETKNALNIVKNDLIAKVDELTCEKDVLQGELEAVKQAKLKLEEKNRELEEELRKARAEAEDARQKAKDDDDSDIPTAQRKRFTRVEMARVLMERNQYKERLMELQEAVRWTEMIRASRENPAMQEKKRSSIWQFFSRLFSSSSNTTKKPEPPVNLKYNAPTSHVTPSVKKRSSTLSQLPGDKSKAFDFLSEETEASLASRREQKREQYRQVKAHVQKEDGRVQAFGWSLPQKYKQVTNGQGENKMKNLPVPVYLRPLDEKDTSMKLWCAVGVNLSGGKTRDGGSVVGASVFYKDVAGLDTEGSKQRSASQSSLDKLDQELKEQQKELKNQEELSSLVWICTSTHSATKVLIIDAVQPGNILDSFTVCNSHVLCIASVPGARETDYPAGEDLSESGQVDKASLCGSMTSNSSAETDSLLGGITVVGCSAEGVTGAATSPSTNGASPVMDKPPEMEAENSEVDENVPTAEEATEATEGNAGSAEDTVDISQTGVYTEHVFTDPLGVQIPEDLSPVYQSSNDSDAYKDQISVLPNEQDLVREEAQKMSSLLPTMWLGAQNGCLYVHSSVAQWRKCLHSIKLKDSILSIVHVKGIVLVALADGTLAIFHRGVDGQWDLSNYHLLDLGRPHHSIRCMTVVHDKVWCGYRNKIYVVQPKAMKIEKSFDAHPRKESQVRQLAWVGDGVWVSIRLDSTLRLYHAHTYQHLQDVDIEPYVSKMLGTGKLGFSFVRITALMVSCNRLWVGTGNGVIISIPLTETNKTSGVPGNRPGSVIRVYGDENSDKVTPGTFIPYCSMAHAQLCFHGHRDAVKFFVAVPGQVISPQSSSSGTDLTGDKAGPSAQEPGSQTPLKSMLVISGGEGYIDFRMGDEGGESELLGEDLPLEPSVTKAERSHLIVWQVMYGNE
B2 was tested, and the binding [2] was “binds”.
